# According to the supplement of paper PMC7666118:
# Chains of the proteins cited; added tags and fusions are not shown. Lines headed by an entry give the natural chain unless they say otherwise; changes in a name come on top.
# UniProt Q9NWH9: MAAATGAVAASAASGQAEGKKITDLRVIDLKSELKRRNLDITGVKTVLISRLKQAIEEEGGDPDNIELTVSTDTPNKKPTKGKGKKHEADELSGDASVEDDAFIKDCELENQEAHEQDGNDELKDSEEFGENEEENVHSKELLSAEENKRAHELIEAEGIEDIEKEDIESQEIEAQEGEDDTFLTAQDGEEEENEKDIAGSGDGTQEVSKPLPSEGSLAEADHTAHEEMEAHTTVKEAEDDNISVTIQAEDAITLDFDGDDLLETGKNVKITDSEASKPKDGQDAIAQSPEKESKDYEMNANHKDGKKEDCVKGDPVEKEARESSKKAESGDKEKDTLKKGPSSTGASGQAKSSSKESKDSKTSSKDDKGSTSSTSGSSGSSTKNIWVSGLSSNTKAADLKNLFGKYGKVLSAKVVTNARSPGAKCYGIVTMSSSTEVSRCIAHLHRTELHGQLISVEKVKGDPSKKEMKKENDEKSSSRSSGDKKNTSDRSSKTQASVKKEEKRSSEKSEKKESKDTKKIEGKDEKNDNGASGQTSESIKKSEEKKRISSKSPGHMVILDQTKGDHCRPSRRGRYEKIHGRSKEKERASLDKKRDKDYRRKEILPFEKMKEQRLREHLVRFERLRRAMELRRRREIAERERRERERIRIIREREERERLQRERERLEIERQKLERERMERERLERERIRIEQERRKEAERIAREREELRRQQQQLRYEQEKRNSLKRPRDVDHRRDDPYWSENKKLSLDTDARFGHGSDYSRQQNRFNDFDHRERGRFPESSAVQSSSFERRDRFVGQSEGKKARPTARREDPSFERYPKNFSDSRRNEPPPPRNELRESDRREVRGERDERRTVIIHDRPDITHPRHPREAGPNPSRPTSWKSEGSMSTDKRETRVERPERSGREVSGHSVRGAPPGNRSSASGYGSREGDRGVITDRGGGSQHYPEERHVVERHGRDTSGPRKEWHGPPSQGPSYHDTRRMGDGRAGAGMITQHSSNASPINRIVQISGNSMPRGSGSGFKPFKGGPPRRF
# The list shows a part of the results.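 The calls were made as follows: active = dose-dependent thermal stabilisation significant by F-test of dose-response against flat model at 10% FDR; inactive = not significant.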
# Biological target: SLTM (UniProt Q9NWH9)
# Assay: dose-dependent thermal stabilisation call (2D-TPP, DLPTP, 10% FDR) (binary (1 = stabilised)); higher = stabilised by the compound
# Conditions: system: Jurkat gel-filtered lysate; concentration range 1-500 µM
# Protocol: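 2D thermal proteome profiling in gel-filtered Jurkat E6.1 lysate (2 mg/ml) treated with NaGTP (0, 1, 10, 100, 500 uM) for 10 min at room temperature, then heated 3 min at one of 12 temperatures (42-63.9 C). Soluble protein was quantified by TMT10 MS. The value is the DLPTP call of the paper: dose-dependent thermal stabilisation over all temperatures at 10% FDR (F-test of a dose-response against a flat model); one experiment, one call per tested protein.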
row,SMILES,dose-dependent thermal stabilisation call
1,Nc1nc2c(ncn2[C@@H]2O[C@H](COP(=O)(O)OP(=O)(O)OP(=O)(O)O)[C@@H](O)[C@H]2O)c(=O)[nH]1,inactive: 0
